This is one part of the list. Residues, ends and D or L forms follow the SMILES beside them. *: point of attachment. Cbz = O=C(OCc1ccccc1)*
Tests used:
Test in all cases: log2 fold change, soluble protein after heating vs DMSO (PISA); higher = thermal stabilisation; K562 cells, 10 uM, 30 min; active = over 0.2 and 3.5 SD of the protein, either way, in both replicates (recomputed)
[1] = compound: C1COCCN1CCN2C3=CC=CC=C3N=C2NC(=O)C4=CC(=CC=C4)[N+](=O)[O-] [IRAK-1-4 Inhibitor I]
Method in brief: (§1)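 K562 cells at 2×10^6 cells/mL were given 10 μM compound for 30 min. Aliquots then went through 3 min of heating across 48°C-58°C, were pooled, and were extracted in PBS with 0.5% NP-40 at 4°C, and the supernatant after 21,000xg for 90 min was quantified by TMTpro 16plex LC-MS/MS with channel sums equalised. Thermal stability relative to control samples, from duplicates, is given as log2 fold change.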

Sequences of proteins named here, by UniProt entry; tags and fusion partners are left off. A change or cut given only in a name is not applied to a line headed by its entry.
UniProt Q9H0E9, whole entry, looked up: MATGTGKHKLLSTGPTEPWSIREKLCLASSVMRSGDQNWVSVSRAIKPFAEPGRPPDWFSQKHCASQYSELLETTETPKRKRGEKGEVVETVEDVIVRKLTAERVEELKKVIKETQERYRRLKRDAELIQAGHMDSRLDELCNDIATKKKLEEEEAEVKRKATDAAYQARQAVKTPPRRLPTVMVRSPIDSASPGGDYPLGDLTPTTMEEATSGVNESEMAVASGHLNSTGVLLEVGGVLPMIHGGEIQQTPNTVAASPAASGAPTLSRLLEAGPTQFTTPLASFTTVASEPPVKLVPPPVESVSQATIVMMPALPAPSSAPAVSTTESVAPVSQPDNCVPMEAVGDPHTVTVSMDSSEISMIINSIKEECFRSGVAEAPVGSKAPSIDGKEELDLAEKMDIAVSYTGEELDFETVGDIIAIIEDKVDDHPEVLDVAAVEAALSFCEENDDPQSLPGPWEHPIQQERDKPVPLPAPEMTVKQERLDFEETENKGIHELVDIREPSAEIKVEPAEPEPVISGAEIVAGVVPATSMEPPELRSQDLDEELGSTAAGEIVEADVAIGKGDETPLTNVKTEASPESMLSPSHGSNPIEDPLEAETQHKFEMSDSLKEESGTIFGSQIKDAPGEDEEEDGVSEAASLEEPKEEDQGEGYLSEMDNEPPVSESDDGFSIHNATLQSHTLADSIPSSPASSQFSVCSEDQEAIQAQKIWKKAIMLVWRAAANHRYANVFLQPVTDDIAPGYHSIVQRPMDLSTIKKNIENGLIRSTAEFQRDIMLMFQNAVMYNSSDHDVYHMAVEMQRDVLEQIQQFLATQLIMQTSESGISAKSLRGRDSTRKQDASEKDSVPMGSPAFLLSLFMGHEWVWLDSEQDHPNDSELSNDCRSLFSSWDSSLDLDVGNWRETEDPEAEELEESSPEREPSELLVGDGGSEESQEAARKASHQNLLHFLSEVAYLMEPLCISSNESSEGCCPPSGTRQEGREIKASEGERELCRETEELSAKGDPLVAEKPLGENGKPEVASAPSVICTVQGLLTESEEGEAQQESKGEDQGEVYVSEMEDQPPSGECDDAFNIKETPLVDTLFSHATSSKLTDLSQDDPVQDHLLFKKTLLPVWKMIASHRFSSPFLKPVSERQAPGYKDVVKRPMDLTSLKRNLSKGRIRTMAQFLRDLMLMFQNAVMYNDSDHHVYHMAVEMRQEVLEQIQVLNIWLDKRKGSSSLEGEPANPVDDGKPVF
UniProt H3BUF6: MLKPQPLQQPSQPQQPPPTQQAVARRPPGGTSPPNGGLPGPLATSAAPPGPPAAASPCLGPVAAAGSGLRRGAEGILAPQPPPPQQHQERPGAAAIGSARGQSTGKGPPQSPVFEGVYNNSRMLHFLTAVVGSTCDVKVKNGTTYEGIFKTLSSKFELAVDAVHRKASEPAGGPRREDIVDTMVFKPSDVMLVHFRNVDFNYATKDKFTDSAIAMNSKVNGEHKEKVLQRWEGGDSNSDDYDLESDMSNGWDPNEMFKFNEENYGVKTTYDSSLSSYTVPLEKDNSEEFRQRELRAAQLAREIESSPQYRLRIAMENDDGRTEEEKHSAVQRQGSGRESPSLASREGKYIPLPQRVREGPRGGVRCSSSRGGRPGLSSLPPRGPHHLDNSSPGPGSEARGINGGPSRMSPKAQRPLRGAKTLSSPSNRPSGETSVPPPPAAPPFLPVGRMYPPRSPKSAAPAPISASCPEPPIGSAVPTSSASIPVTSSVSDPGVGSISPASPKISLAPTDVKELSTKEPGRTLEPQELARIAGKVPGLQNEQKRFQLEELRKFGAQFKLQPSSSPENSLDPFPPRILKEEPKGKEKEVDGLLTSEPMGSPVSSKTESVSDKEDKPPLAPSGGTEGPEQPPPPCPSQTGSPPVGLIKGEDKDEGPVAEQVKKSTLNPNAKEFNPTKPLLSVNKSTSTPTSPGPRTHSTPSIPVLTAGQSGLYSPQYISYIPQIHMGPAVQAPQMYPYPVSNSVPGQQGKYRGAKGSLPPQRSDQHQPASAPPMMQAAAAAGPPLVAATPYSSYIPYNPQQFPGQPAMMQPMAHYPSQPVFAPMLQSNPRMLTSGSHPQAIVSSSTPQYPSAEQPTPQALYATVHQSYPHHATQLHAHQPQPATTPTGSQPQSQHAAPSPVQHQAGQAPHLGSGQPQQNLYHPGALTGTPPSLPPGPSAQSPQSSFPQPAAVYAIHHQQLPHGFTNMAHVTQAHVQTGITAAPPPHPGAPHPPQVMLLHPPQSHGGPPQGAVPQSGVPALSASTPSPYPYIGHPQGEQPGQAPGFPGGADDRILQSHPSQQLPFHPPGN
UniProt Q9NP55: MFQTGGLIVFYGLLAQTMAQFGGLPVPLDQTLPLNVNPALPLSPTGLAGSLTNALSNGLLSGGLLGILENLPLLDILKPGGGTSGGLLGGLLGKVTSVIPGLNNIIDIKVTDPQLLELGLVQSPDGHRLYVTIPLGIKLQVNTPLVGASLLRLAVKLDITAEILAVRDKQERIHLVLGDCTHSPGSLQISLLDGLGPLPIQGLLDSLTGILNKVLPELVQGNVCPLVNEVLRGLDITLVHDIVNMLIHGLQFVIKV
UniProt O75363: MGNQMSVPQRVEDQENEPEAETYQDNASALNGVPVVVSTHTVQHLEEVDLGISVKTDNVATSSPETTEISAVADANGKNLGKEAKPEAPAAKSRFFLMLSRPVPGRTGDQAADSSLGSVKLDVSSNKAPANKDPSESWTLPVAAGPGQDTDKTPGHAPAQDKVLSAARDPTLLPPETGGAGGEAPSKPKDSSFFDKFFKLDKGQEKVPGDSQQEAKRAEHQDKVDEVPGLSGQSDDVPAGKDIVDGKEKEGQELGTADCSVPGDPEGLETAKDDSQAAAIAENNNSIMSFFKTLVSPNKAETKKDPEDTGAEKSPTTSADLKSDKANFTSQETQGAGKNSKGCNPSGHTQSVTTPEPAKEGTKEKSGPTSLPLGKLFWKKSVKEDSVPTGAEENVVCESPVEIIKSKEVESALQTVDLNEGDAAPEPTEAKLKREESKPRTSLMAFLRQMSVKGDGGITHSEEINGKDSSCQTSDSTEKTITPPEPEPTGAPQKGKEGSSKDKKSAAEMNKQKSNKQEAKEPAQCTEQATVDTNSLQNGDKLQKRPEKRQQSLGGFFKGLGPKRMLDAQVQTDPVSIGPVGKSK
UniProt Q96G97: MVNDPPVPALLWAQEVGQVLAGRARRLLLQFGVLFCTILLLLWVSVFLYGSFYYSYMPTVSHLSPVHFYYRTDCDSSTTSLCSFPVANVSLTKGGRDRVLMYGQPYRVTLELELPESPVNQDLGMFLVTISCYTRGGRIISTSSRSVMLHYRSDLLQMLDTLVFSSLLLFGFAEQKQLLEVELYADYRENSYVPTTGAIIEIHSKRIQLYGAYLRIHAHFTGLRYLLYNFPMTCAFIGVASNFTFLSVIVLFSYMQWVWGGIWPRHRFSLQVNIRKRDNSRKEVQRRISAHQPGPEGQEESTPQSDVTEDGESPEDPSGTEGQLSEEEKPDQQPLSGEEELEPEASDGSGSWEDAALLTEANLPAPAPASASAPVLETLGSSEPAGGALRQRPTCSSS
UniProt Q9H6S1, whole entry, looked up: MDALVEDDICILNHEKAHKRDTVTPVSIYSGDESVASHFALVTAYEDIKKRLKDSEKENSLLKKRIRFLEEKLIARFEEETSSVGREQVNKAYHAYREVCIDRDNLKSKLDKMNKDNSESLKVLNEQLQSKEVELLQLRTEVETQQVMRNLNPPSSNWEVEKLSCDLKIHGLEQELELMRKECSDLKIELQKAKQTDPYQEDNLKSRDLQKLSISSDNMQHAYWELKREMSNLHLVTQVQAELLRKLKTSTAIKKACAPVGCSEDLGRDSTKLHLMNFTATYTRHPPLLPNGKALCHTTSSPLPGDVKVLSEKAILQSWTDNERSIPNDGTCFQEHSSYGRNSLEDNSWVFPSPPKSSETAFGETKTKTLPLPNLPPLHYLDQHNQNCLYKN
UniProt Q96L58: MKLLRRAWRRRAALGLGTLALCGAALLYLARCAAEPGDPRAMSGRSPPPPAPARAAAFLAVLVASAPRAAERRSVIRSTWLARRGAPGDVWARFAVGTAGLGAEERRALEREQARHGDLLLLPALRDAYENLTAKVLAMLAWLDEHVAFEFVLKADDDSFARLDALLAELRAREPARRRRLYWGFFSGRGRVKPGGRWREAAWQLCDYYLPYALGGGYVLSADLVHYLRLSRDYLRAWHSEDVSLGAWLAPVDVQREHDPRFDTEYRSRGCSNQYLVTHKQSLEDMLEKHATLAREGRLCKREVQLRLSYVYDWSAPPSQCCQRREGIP
UniProt Q9BYG0: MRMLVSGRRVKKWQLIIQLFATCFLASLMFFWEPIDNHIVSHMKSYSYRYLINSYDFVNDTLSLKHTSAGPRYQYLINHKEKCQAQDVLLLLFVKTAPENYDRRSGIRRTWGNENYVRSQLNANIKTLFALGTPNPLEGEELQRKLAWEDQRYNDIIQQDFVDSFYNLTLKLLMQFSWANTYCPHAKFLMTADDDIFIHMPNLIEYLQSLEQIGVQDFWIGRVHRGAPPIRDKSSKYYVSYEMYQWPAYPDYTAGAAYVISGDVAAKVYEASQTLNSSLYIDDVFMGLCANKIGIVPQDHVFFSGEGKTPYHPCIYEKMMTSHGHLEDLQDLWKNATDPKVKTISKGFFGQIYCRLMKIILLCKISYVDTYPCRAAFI
UniProt Q9BQE9, whole entry, looked up: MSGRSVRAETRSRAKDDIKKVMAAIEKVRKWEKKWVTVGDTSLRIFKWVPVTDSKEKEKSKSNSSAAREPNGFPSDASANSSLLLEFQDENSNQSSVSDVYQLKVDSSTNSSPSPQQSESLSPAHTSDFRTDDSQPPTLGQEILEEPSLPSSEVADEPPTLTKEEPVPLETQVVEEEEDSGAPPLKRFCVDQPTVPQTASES
UniProt Q7Z5W3: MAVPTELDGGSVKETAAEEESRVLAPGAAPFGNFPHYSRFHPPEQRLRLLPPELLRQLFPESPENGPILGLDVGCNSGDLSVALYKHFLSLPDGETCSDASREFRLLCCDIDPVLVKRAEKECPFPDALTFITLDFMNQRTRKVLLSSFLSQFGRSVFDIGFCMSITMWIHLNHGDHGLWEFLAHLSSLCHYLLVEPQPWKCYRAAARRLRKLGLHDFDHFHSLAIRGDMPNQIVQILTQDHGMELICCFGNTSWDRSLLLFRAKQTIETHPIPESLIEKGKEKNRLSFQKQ
UniProt Q8NCR0: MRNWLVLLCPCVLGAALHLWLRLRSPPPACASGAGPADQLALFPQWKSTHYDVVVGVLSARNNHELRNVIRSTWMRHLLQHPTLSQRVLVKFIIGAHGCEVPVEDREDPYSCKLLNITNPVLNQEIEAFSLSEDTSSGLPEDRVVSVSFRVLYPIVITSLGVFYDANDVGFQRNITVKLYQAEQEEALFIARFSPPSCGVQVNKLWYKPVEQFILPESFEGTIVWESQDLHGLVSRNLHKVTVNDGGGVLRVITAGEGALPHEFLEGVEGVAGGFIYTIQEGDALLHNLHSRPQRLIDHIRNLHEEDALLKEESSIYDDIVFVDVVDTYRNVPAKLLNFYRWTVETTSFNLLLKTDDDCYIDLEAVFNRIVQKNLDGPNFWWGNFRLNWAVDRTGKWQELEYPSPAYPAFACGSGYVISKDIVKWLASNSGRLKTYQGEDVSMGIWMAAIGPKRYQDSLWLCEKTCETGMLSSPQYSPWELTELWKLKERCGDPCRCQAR
UniProt Q12983, whole entry, looked up: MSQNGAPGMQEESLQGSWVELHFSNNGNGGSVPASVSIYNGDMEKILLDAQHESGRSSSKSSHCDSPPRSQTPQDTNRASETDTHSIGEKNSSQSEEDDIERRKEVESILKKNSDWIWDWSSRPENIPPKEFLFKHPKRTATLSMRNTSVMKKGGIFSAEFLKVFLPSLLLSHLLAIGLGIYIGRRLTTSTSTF
UniProt Q16611: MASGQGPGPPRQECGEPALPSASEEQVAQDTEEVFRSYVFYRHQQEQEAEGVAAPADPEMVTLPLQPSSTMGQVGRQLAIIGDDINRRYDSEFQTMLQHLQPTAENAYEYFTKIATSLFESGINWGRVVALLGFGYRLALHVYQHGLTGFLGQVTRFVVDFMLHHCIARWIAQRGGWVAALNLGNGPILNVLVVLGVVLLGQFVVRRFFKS
UniProt P61769, whole entry, looked up: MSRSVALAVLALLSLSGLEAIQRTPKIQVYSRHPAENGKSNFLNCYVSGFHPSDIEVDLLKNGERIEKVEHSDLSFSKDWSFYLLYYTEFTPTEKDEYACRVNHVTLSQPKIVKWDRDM
UniProt Q9BUT1: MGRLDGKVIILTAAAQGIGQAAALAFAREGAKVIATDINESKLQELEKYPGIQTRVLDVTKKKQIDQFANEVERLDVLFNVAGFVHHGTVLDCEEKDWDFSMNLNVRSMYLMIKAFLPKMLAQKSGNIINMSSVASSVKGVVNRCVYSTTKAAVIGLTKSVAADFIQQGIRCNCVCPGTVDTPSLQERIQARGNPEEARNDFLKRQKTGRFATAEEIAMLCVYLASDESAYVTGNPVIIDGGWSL

[2] = compound: C=CC(=O)N1CCC[C@@H](n2nc(-c3ccc(Oc4ccccc4)cc3)c3c(N)ncnc32)C1 [ibrutinib]
Method in brief: as §1

[3] = compound: CC(=O)c1cnc2ccc(-c3cc(Cl)c(O)c(Cl)c3)nc2c1N[C@H]1CC[C@H](CN(C)C)CC1
Method in brief: as §1

[4] = compound: CC(C)(C)Cn1c(N)nc2ccc(-c3[nH]c(C(C)(C)C)nc3-c3ccc(F)cc3)nc21 [ralimetinib]
Method in brief: as §1

[5] = compound: CC(C)(O)CC(=O)NCCn1ccc2ncnc(Nc3ccc(Oc4cccc(C(F)(F)F)c4)c(Cl)c3)c21
Method in brief: as §1

[6] = compound: CC(C)C1=C2N=C(C=C(N2N=C1)NCC3=CC=CC=C3)NCCCCCCN
Method in brief: as §1

[7] = compound: CC(C)C[C@@H](C=O)NC(=O)[C@H](CC(C)C)NC(=O)[C@H](CC(C)C)NC(=O)OCc1ccccc1
Method in brief: as §1

[8] = compound: CC(C)N(C[C@H]1O[C@@H](n2cnc3c(N)ncnc32)[C@H](O)[C@@H]1O)[C@H]1C[C@@H](CCc2nc3cc(C(C)(C)C)ccc3[nH]2)C1 [pinometostat]
Method in brief: as §1

[9] = compound: CC1=C(C2=C(C=C1)C(=O)C3=CC=CC=C3N2CCCN)C
Method in brief: as §1

[10] = compound: CC1=C(C=C(C=C1)NC(=O)C2=CC(=CC=C2)C(C)(C)C#N)NC3=CC4=C(C=C3)N=CN(C4=O)C
Method in brief: as §1

[11] = compound: CC1=C(C=C(C=C1)NC(=O)C2=CC(=CC=C2)N(C)C)NC(=O)C3=CC=C(C=C3)O
Method in brief: as §1

[12] = compound: CC1=CC=C(C=C1)SC2=C3C=C(SC3=CN=C2)C(=O)N
Method in brief: as §1

[13] = compound: CC1=NC(=CC=C1)C2=C(N=C(N2)C(C)(C)C)C3=CC4=NC=CN=C4C=C3
Method in brief: as §1

[14] = compound: CCCCN(Cc1ccc(C(=O)NO)cc1)C(=O)Nc1ccccc1 [Nexturastat A]
Method in brief: as §1

[15] = compound: CCCS(=O)(=O)Nc1ccc(F)c(C(=O)c2c[nH]c3ncc(-c4ccc(Cl)cc4)cc23)c1F [vemurafenib]
Method in brief: as §1

[16] = compound: CCCS(=O)(=O)Nc1ccc(F)c(C(=O)c2c[nH]c3ncc(Cl)cc23)c1F
Method in brief: as §1

[17] = compound: CCCc1cc(C)[nH]c(=O)c1CNC(=O)c1cc(-c2ccnc(N3CCN(C)CC3)c2)cc2c1cnn2C(C)C
Method in brief: as §1

[18] = compound: CCN(CC)Cc1ccc2cc(COC(=O)Nc3ccc(C(=O)NO)cc3)ccc2c1 [givinostat]
Method in brief: as §1

[19] = compound: CCN(CCCOc1ccc2c(Nc3cc(CC(=O)Nc4cccc(F)c4)[nH]n3)ncnc2c1)CCOP(=O)(O)O [barasertib]
Method in brief: as §1

[20] = compound: CC1=C(C(CC(=O)N1)C2=CC=C(C=C2)C(F)(F)F)C(=O)NC3=C(C=C4C(=C3)C=NN4)F
Method in brief: as §1

Measured: log2 fold change

BRD8 (UniProt Q9H0E9)
inactive: [1] 0 | [2] -0.014 | [3] -0.009 | [4] -0.022 | [5] -0.012 | [6] -0.013 | [7] 0.098 | [8] 0.001 | [9] -0.019 | [10] 0.002 | [11] 0.026 | [12] -0.01 | [13] 0.017 | [14] -0.098 | [15] 0.027 | [16] 0.01 | [17] 0.002 | [18] -0.153 | [19] -0.026

BRD4 (UniProt O60885)
active: [14] -0.451
inactive: [2] -0.018 | [3] -0.254 | [4] -0.174 | [5] -0.011 | [6] 0.094 | [7] -0.035 | [9] 0.101 | [10] 0.245 | [11] -0.272 | [12] 0.071 | [15] 0.046 | [16] -0.003 | [17] 0.017 | [18] -0.252 | [19] 0.021

BCOR (UniProt Q6W2J9)
inactive: [1] 0.078 | [2] -0.043 | [5] 0.03 | [6] 0.062 | [8] 0.087 | [9] 0 | [10] -0.264 | [13] -0.161 | [14] 0.143 | [15] -0.231 | [18] 0.092 | [19] 0.023

ATXN2L (UniProt H3BUF6)
inactive: [1] -0.017 | [2] -0.039 | [4] -0.031 | [7] -0.001 | [8] 0.021 | [20] 0.039 | [11] 0.008 | [12] -0.171 | [13] 0.018 | [16] 0.109 | [17] -0.002 | [19] -0.081

BPIFA1 (UniProt Q9NP55)
inactive: [1] -0.252 | [2] 0.08 | [4] -0.043 | [7] -0.385 | [8] -0.072 | [20] -0.323 | [10] -0.159 | [11] 0.218 | [13] -0.019 | [17] 0.054 | [19] 1.7

BCAS1 (UniProt O75363)
inactive: [2] 0.127 | [3] -0.046 | [4] 0.026 | [5] -0.139 | [6] 0.067 | [7] 0.103 | [20] 0.197 | [9] 0 | [10] 0.006 | [11] 0.247 | [12] 0.014 | [14] -0.097 | [15] -0.035 | [16] -0.04 | [17] -0.102 | [18] -0.043 | [19] -0.115

BSCL2 isoform 4 (UniProt Q96G97)
inactive: [2] 0.069 | [3] -0.109 | [5] 0.003 | [6] -0.219 | [9] 0.023 | [12] -0.073 | [14] -0.174 | [15] 0.179 | [16] -0.043 | [17] -0.124 | [18] 0.052 | [19] 0.199

AZI2 (UniProt Q9H6S1)
inactive: [2] 0.046 | [4] -0.241 | [6] -0.126 | [7] -0.09 | [9] 0.022 | [10] -0.091 | [11] 0.045 | [15] 0.047 | [18] 0.028 | [19] -0.023

BPNT1 (UniProt A6NF51)
inactive: [1] 0 | [2] 0.244 | [4] 0.099 | [5] -0.031 | [6] 0.114 | [7] -0.125 | [8] 0.044 | [9] -0.043 | [11] 0.126 | [13] 0.068 | [14] 0.016 | [15] 0.001 | [17] -0.025 | [18] 0.214 | [19] -0.616

B3GALT6 (UniProt Q96L58)
inactive: [1] 0.016 | [4] 0.064 | [6] 0.221 | [7] 0.055 | [8] 0.082 | [11] 0.029 | [13] -0.06 | [18] 0.032

B3GNT5 (UniProt Q9BYG0)
inactive: [1] 0.076 | [2] 0.102 | [5] -0.063 | [6] -0.06 | [8] 0.041 | [20] -0.011 | [10] -0.06 | [13] -0.023 | [14] 0.028 | [15] -0.155 | [17] -0.062 | [18] 0.037 | [19] -0.104

BPTF (UniProt Q12830)
inactive: [1] 0.01 | [5] 0.226 | [6] -0.079 | [8] -0.001 | [20] 0.054 | [10] 0.053 | [13] 0.165 | [14] -0.086 | [18] 0.189

BCL7B (UniProt Q9BQE9)
inactive: [1] -0.349 | [8] 0.116 | [13] -0.027 | [15] -0.047 | [17] 0.128

BCDIN3D (UniProt Q7Z5W3)
inactive: [2] 0.059 | [3] -0.109 | [9] 0.04 | [19] 0.111

B3GALNT2 (UniProt Q8NCR0)
inactive: [1] -0.198 | [2] 0.003 | [4] 0.142 | [5] -0.004 | [6] -0.214 | [7] 0.037 | [8] -0.15 | [9] 0 | [10] -0.129 | [11] 0.115 | [12] -0.123 | [13] 0.039 | [14] -0.026 | [15] -0.135 | [16] -0.324 | [17] -0.114 | [18] 0 | [19] 0.078

BNIP3 (UniProt Q12983)
inactive: [2] 0.016 | [3] -0.156 | [4] 0.035 | [5] 0 | [7] 0.184 | [20] 0.029 | [9] -0.046 | [10] 0.011 | [11] -0.026 | [12] 0.022 | [14] 0.293 | [15] 0.059 | [16] 0.036 | [17] -0.487 | [19] -0.083

BAK1 (UniProt Q16611)
inactive: [1] 0.021 | [2] 0.097 | [3] -0.209 | [5] -0.018 | [6] -0.063 | [8] 0.048 | [20] 0.011 | [9] 0.154 | [10] -0.006 | [12] -0.019 | [13] 0.001 | [14] -0.095 | [15] -0.095 | [16] 0.005 | [17] -0.063 | [18] -0.07 | [19] -0.01

BLVRA (UniProt C9J1E1)
inactive: [1] 0.252 | [2] -0.05 | [3] -0.143 | [6] 0.012 | [8] 0.063 | [20] -0.172 | [12] -0.149 | [13] 0.095 | [15] -0.123 | [16] -0.26 | [17] -0.293 | [18] -0.076 | [19] 0.009

2 entries drawn at random from those above, as already listed:
BRD8 (UniProt Q9H0E9)
inactive: [1] 0 | [2] -0.014 | [3] -0.009 | [4] -0.022 | [5] -0.012 | [6] -0.013 | [7] 0.098 | [8] 0.001 | [9] -0.019 | [10] 0.002 | [11] 0.026 | [12] -0.01 | [13] 0.017 | [14] -0.098 | [15] 0.027 | [16] 0.01 | [17] 0.002 | [18] -0.153 | [19] -0.026

BCAS1 (UniProt O75363)
inactive: [2] 0.127 | [3] -0.046 | [4] 0.026 | [5] -0.139 | [6] 0.067 | [7] 0.103 | [20] 0.197 | [9] 0 | [10] 0.006 | [11] 0.247 | [12] 0.014 | [14] -0.097 | [15] -0.035 | [16] -0.04 | [17] -0.102 | [18] -0.043 | [19] -0.115

Following part.

ATRN (UniProt O75882)
inactive: [1] -0.084 | [2] 0.083 | [3] 0.012 | [5] -0.02 | [6] 0.033 | [8] 0.079 | [9] 0.044 | [10] 0.037 | [12] -0.034 | [13] -0.061 | [14] -0.135 | [15] -0.026 | [16] 0.054 | [17] -0.003 | [18] 0.026 | [19] -0.09

B2M (UniProt P61769)
inactive: [2] -0.002 | [3] 0.015 | [4] -0.025 | [5] -0.016 | [6] 0.026 | [7] -0.048 | [20] -0.01 | [9] 0.146 | [10] 0.065 | [11] -0.099 | [12] 0.021 | [14] -0.005 | [15] -0.021 | [16] 0.003 | [17] 0.016 | [18] -0.027 | [19] -0.044

BRAF, A0A2R8Y8E0
active: [11] -1.03
inactive: [1] 0.055 | [3] 0.156 | [4] 0.059 | [6] -0.188 | [7] 0.067 | [8] -0.04 | [9] 0.078 | [13] -0.021 | [17] -0.078 | [18] -0.006

BDH2 (UniProt Q9BUT1)
active: [15] 0.447
inactive: [1] -0.009 | [2] 0.041 | [3] -0.073 | [4] -0.059 | [6] 0.183 | [7] 0.001 | [8] 0.004 | [10] -0.051 | [11] -0.085 | [12] 0.086 | [13] 0.016 | [16] -0.077 | [17] -0.019 | [18] -0.033 | [19] -0.019

Source: the supplement of paper PMC10849652
